According to US20100144645A1 (SHIRE LLC, priority 2006, published 2010):

Assay: peptide synthesis

| Substance | step yield (late stage modification step) [% yield] | step yield (coupling step) [% yield] |
| --- | --- | --- |
| Gly-Gly-Gly-Gly-Leu-Hydrocodone | 97 |  |
| Boc-Gly-Gly-Gly-Gly-Leu-Hydrocodone |  | 37 |
